Counter-ions that a name gives are not always drawn. The list shows a part of the results. The calls rarely recur for the same compound in another form.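 Kinases, fused to nanoluciferase, were expressed in K562 cells; luminescence was measured every 4 h from 2 to 18 h as percent of control (DMSO = 100%, positive control = 0%). A time point is decreased if signal falls significantly (2 sigma). Hits were called by the authors by a rule that is not shown; the count of time points alone does not decide it.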

Amino acid sequences for entries named in this document (tags omitted).
UniProt Q16620, whole entry, looked up: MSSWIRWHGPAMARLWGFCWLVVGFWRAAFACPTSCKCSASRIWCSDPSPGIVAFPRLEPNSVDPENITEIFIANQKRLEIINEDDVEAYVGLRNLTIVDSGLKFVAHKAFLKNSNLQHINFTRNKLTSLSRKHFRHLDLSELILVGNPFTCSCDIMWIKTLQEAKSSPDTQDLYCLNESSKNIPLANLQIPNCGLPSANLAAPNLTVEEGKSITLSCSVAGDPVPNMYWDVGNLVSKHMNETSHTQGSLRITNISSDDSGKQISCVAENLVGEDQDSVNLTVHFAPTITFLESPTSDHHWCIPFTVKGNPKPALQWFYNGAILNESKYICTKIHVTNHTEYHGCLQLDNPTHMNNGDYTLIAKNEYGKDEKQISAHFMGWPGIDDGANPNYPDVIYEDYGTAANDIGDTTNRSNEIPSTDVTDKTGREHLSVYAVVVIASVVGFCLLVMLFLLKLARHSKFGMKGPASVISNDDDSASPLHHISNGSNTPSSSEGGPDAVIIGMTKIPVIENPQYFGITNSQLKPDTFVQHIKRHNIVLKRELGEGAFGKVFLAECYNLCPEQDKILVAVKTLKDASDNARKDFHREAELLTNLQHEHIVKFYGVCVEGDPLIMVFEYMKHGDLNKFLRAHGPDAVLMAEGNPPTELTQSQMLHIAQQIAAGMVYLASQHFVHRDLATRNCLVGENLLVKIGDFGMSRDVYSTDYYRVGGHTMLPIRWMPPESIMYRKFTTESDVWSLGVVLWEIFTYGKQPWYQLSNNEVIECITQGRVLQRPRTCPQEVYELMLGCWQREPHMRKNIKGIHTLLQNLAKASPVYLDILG

In this test the target is NTRK2 (UniProt Q16620). The test is described as follows: number of time points (of 5) at which kinase-Nluc abundance scored as decreased, DMSO-normalised (count); higher = more persistent destabilization. The following applies: K562; 2-18 h.
Regarding `CCc1c(C(=O)NNC(=O)C(O)c2cc(F)cc(F)c2)ccc(O)c1C` (stereo not drawn) (10 µM), the “number of time points” value was determined as 0. Next, `COc1cc2ncnc(Nc3ccc(Cl)cc3F)c2cc1OC` (10 µM): 0; `COc1cc(/C=C/C(=O)NCC(O)c2ccc(O)cc2)ccc1O` (stereo not drawn) [N-Feruloyloctopamine] (2.5 µM): 0. As to `NC(=O)c1nc(Nc2ccccc2)sc1NC(=O)C1CCCCC1` (10 µM), the “number of time points” value stood at 0. Regarding `O=c1cc(CN2CCOCC2)occ1OCCCCCSc1ccnc2cc(C(F)(F)F)ccc12` (10 µM), the “number of time points” value turned out to be 0. Next, `O=C(O)CCC(=O)Nc1ccc(Br)cn1` [Bikinin] (10 µM): 0; `CC[C@@H](Oc1nc(Oc2cc(C)cc(-c3cccc(CN)c3)c2)c(F)cc1F)C(=O)O` (10 µM): 0; `C[C@]1(O)CCN(c2nc(N3C[C@H](O)[C@@H](O)C3)cc(C(F)(F)F)c2C#N)C1` (10 µM): 0. For `COc1ccccc1-c1cc(Nc2cccc(CS(N)(=O)=O)c2)ncn1` (10 µM) the value was 2; for `CC(=O)c1c(C)cc2cccc(O)c2c1O` [Nepodin] (10 µM), 0; for `NC(=O)c1ccc2[nH]ccc2c1` (10 µM), 0. Next, `COc1cc2c(cc1OC)CN(S(=O)(=O)c1ccc(OC)c(N3CCN(C(=O)c4ccc(F)cc4C(F)(F)F)CC3)c1)CC2` (10 µM): 0; `OCCn1cc(-c2ccc3c(c2)CC/C3=N\O)c(-c2ccncc2)n1` (10 µM): 0. Turning to `C[C@@H]1CC[C@@H](Nc2nc(NC(C)(C)C)ncc2C(N)=O)C[C@H]1O` (10 µM), the “number of time points” value came to 0. For `CCc1cc2c(cc1N1CCC(N3CCOCC3)CC1)C(C)(C)c1[nH]c3cc(C#N)ccc3c1C2=O` [Alectinib] (10 µM) the value was 0; for `COCCNc1nc2ccc(C#CC3(O)CCCCC3)cc2n1-c1ccnc(N)n1` (10 µM), 0; for `Cc1[nH]c(/C=C2\C(=O)Nc3ccccc32)c(C)c1CCC(=O)O` [Orantinib] (10 µM), 0. Consider `Nc1cc(C(F)(F)F)c(-c2cc(N3CCOCC3)nc(N3CCOCC3)n2)cn1` [Buparlisib (Hydrochloride)] (2.5 µM), for which the “number of time points” value turned out to be 0. Consider `CCN1CCN(Cc2ccc(Nc3ncc(F)c(-c4cc(F)c5nc(C)n(C(C)C)c5c4)n3)nc2)CC1` [Abemaciclib (methanesulfonate)] (10 µM), for which the “number of time points” value was 4. In the case of `Cc1ccc2cc(-c3c(C)ccc(C(=O)c4c(-c5ccccc5)n(C)n(-c5ccccc5)c4=O)c3N)ccc2n1` (2.5 µM), the “number of time points” value turned out to be 0. Take `FC(F)(c1ccc2ncccc2c1)c1nnc2ccc(-c3ccncc3)nn12` (10 µM): the “number of time points” value is 0. Next, `O=C1N[C@@H](Cc2c[nH]c3ccccc23)C(=O)N2CCC[C@@H]12` [Brevianamide F] (10 µM): 0; `Cc1nc2sccn2c(=O)c1CCN1CCC(=C(c2ccccc2)c2ccc(F)cc2)CC1` (10 µM): 0; `O=c1[nH]c(=O)n([C@@H]2O[C@H](CO)[C@@H](O)[C@@H]2O)cc1/C=C/Br` [Sorivudine] (10 µM): 0.

In the case of `COc1cc2nccc(Oc3ccc(NC(=O)NC4CC4)c(Cl)c3)c2cc1C(N)=O` [Lenvatinib (mesylate)] (10 µM), the “number of time points” value came to 1. For `CN1C(=O)N[C@H](Cc2c[nH]c3c(Cl)cccc23)C1=O` [Necrostatin 2] (10 µM) the value was 0; for `CCN1CCN(Cc2ccc(Nc3ncc(F)c(-c4cc(F)c5nc(C)n(C(C)C)c5c4)n3)nc2)CC1` [Abemaciclib] (2 µM), 0. For `Cc1ccc2nc(NCCN)c3ncc(C)n3c2c1` (2.5 µM) the value was 0. For `CNC(=O)c1c(F)cccc1Nc1nc(Nc2cc3c(cc2OC)CCN3C(=O)CN(C)C)nc2[nH]ccc12` (10 µM) the value was 0. Take `Cn1nccc1Nc1nccc(-c2ccn([C@H](CO)c3ccc(Cl)c(F)c3)c(=O)c2)n1` [Ravoxertinib hydrochloride] (10 µM): the “number of time points” value turned out to be 0. Regarding `CN(C)CCSSCCNC(=O)C1CCN(C(=O)CSc2ccc(Cl)cc2)CC1` (10 µM), the “number of time points” value came out at 0. Next, `CNC(=O)c1cc(COc2nnc(Nc3ccc(Cl)cc3)c3ccoc23)ccn1` [Telatinib] (10 µM): 0; `NCCNS(=O)(=O)c1cccc2c(Cl)cccc12` [A-3 (hydrochloride)] (10 µM): 0. On to `O=C(Nc1ccc(CN2CCOCC2)cc1)c1ccc(-c2cccc(Cl)c2)o1` (10 µM), for which the “number of time points” value is 0. With `CCN1CCN(Cc2ccc(-c3cc4c(N[C@H](C)c5ccccc5)ncnc4[nH]3)cc2)CC1` (2.5 µM), the “number of time points” value is 1.

Turning to `COc1cccc(OC)c1C(=O)OCc1cc(O)ccc1O[C@@H]1O[C@H](CO)[C@@H](O)[C@H](O)[C@H]1O` [Curculigoside] (10 µM), the “number of time points” value amounted to 0. As for `Nc1ncnc2c1c(-c1ccc(Oc3ccccc3)cc1)nn2C1CCCC1` (2.5 µM), the “number of time points” value was found to be 0. For `CC#CC(=O)N1CC[C@@H](n2c(=O)n(-c3ccc(Oc4ccccc4)cc3)c3c(N)ncnc32)C1` [Tirabrutinib] (10 µM), the “number of time points” value came out at 0.

The values above are taken from the supplement of paper PMC12823440, “Inhibitors supercharge kinase turnover through native proteolytic circuits” (Nature, 2025).
